A short description of the assay: qHTS Assay to Find Inhibitors of Chronic Active B-Cell Receptor Signaling. The note with it: ABC-DLBCL IkBa-CBG/CBR reporter, luminescence ratio (green luciferase fused to IkBa over red control in TMD8 lymphoma cells), 4 h. The method in brief:
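Cell line TMD8 (human ABC DLBCL), stably expressing tet-inducible CBG68-IkBa fusion and CBR; IMDM/0.5% FBS; cpd up to 46 uM; dox induction, 4 h, 37C/5% CO2; dual luminescence; green/red ratio; MG132 control.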
A general note: qHTS replaces the single test concentration by a dilution series.

Where [1] appears, read: measured here: CBR red luminescence, cell number.
Setting [2] is: measured here: IkBa-CBG green luminescence.

From PubChem BioAssay AID493014 (National Center for Advancing Translational Sciences (NCATS), 2011) come the findings set out here.

One may read the AC50 as the concentration at which the activity in the assay is half-maximal.

Where “and” joins values, the source holds several entries; their conditions need not be identical. Equal values may be shown once. The list shows a part of the results. Further columns of the screen follow, without active or inactive calls. Compounds called inactive in the main read-out are mostly missing here. The note in brackets gives the kind of curve behind each potency; many fits are weak.

Consider `COc1ccc(OC)c2sc(N3CCN(C(=O)C(C)(C)C)CC3)nc12`, for which the AC50 under setting [1] is 11.2 µM [rising, single point].

Regarding `C=C(C)C(=O)Nc1cccc(C2=NOC3(C2)C[C@@H](C(N)=O)N(C(=O)CCCCC)C3)c1` (some centres undefined), the concentration at half-maximal activity (AC50) under setting [1] is 4.47 µM [rising, full curve, poor fit].

Take `Cn1c(=O)[nH]c(=O)c2c1nc(N1CCCCC1)n2C/C=N/Nc1ccc(C(=O)O)cc1`: the concentration at half-maximal activity (AC50) under setting [1] is 1.78 µM [falling, full curve].

Regarding `Cc1ccc(N2CC(C(=O)NCCCn3ccnc3)CC2=O)cc1` (centres undefined), the half-maximal activity concentration (AC50) under setting [1] was 2.59 µM [falling, single point].

In the case of `COc1ccccc1OCCSc1nc(C)c(Cc2ccccc2)c(=O)[nH]1`, under setting [1], the AC50 was 8.91 µM [falling, partial curve, poor fit].

For the molecule `CCn1c(SCC(=O)Nc2ccc(NC(C)=O)cc2)nc2c1c(=O)n(C)c(=O)n2C`, under setting [1], the AC50 is 2.82 µM [rising, partial curve, poor fit].

`O=C(Nc1cccnc1)c1ccc(-c2cc(Cl)ccc2Cl)o1`: the concentration at half-maximal activity (AC50) under setting [1] is 17.8 µM [falling, single point].

As to `COc1ccc(OCCn2cc(/C(N)=N/O)c3ccccc32)cc1`, under setting [1], the AC50 is 6.31 µM [rising, single point].

For the molecule `Cc1cccc(CCNc2nc3ccc(C)cc3n3cnnc23)c1`, the AC50 under setting [1] was 0.631 µM [rising, full curve, poor fit].

Turning to `Cc1cc(C(=O)N2CCc3ccccc32)c2ccccc2n1`, under setting [1], the AC50 was 35.5 µM [rising, single point].

As for `FC(F)(F)c1cccc(N/N=C/c2ccccc2)c1`, under setting [1], the AC50 was 0.058 µM [rising, full curve, poor fit].

Consider `CCOc1cc(CNC(=O)c2sc3ncnc(N(C)C4CCCCC4)c3c2C)ccc1OC`, for which the half-maximal activity concentration (AC50) under setting [1] is 2.82 µM [rising, partial curve, poor fit].

In the case of `O=C(Nc1cc2ccccc2oc1=O)c1ccccc1`, the AC50 under setting [1] is 1.78 µM [falling, full curve].

`COc1cccc(C2c3c(oc4ccccc4c3=O)C(=O)N2CCCN2CCOCC2)c1` (centres undefined): the AC50 under setting [1] was 11.6 µM [rising, partial curve].

Take `CC1=CC(C)C(COC(=O)CN2CCCCC2)C(C)C1` (centres undefined): the half-maximal activity concentration (AC50) under setting [1] was 11.2 µM [rising, partial curve].

For `CCOC(=O)CSC1=C(C#N)C(c2ccc(C)o2)CC(=O)N1` (centres undefined), the concentration at half-maximal activity (AC50) by setting is: under setting [1], 7.31 µM [rising, partial curve]; under setting [2], 4.61 µM [falling, full curve].

On to `COCCn1c(SCC(=O)N2CCCc3ccccc32)nc2cccnc21`, for which, under setting [1], the concentration at half-maximal activity (AC50) was 6.51 µM [falling, single point].

On to `O=c1[nH]ncc(N/N=C\c2ccc(O)cc2O)c1Cl`, for which the AC50 under setting [1] was 7.08 µM [falling, partial curve].

Regarding `CCCCn1c(SCC(=O)Nc2nc(C)cs2)nnc1-c1cccnc1`, under setting [1], the concentration at half-maximal activity (AC50) is 13 µM [falling, partial curve, poor fit].

Consider `O=C(NNC(=O)c1cccc2ccccc12)c1ccc(-c2ccccc2)cc1`, for which the AC50 under setting [1] was 20.6 µM [rising, single point].

As to `COc1ccc(-c2ccc(=O)n(CC(=O)Nc3ccc(C(=O)NC4CC4)cc3)n2)cc1OC`, the AC50 under setting [1] is 0.562 µM [falling, full curve, poor fit].

For the molecule `CCCc1cc(-n2cnc3ccccc32)n2c(nc3ccccc32)c1C#N`, under setting [1], the AC50 is 3.26 µM [rising, partial curve, poor fit].

Regarding `Cc1csc(SCC(=O)NCc2ccccc2)n1`, the half-maximal activity concentration (AC50) under setting [1] is 5.62 µM [rising, partial curve, poor fit].

As for `CC1CCCCN1C(=O)COC(=O)C1CCN(S(=O)(=O)c2c(Cl)cccc2Cl)CC1` (centres undefined), the AC50 under setting [1] is 6.31 µM [rising, full curve, poor fit].

Regarding `O=C(O)c1ccc(NS(=O)(=O)c2cccc(C(=O)Nc3ccc([N+](=O)[O-])cc3)c2)cc1`, the AC50 under setting [1] is 12.6 µM [rising, single point].

As to `CN(Cc1cccs1)C(=O)Cn1cnc2cc([N+](=O)[O-])ccc2c1=O`, the concentration at half-maximal activity (AC50) under setting [1] was 35.5 µM [falling, single point].

Regarding `COC(=O)c1cc2sc(Cl)cc2n1CC(=O)Nc1ccc(OC)c(OC)c1OC`, the AC50 under setting [1] is 0.794 µM [falling, full curve, poor fit].

As to `CCOc1ccc(Sc2cc(C(=O)NC(C)c3ccccc3)c3ccccc3n2)cc1` (centres undefined), under setting [1], the concentration at half-maximal activity (AC50) was 3.16 µM [falling, partial curve, poor fit].

For the molecule `COc1cccc2sc(N(CCCN(C)C)C(=O)COc3ccc(Cl)cc3)nc12`, the AC50 under setting [1] was 20 µM [falling, single point].

In the case of `Cc1cc(=O)[nH]c(SCC(=O)Nc2ccc(Br)cc2)c1C#N`, the AC50 under setting [1] is 1.64 µM [rising, single point].

Consider `O=C(O)Cc1ccc(C(=O)c2ccccc2)s1`, for which the AC50 is 23.1 µM [rising, partial curve] under setting [1] and 10.3 µM [rising, partial curve, poor fit] under setting [2].

Consider `O=C1/C(=C/c2ccco2)CCC1C1CCCC1` (centres undefined), for which, under setting [1], the AC50 is 4.47 µM [rising, single point].

As for `O=C(NCC(c1ccco1)N1CCCC1)c1cn(Cc2ccccc2)nc1-c1ccccc1` (centres undefined), under setting [1], the AC50 was 18.4 µM [falling, single point].

On to `Cc1ccc2oc(-c3ccc(NC(=O)c4ccc5c(c4)OCO5)cc3)nc2c1`, for which the concentration at half-maximal activity (AC50) under setting [1] was 20.6 µM [rising, single point].

With `CNC(=O)C(=O)NCC1CCCN1S(=O)(=O)c1cccs1` (centres undefined), the AC50 under setting [1] is 18.4 µM [rising, partial curve, poor fit].

As for `CC(C)(C)c1cc(C(=O)Nc2ccc(F)cc2)n(Cc2ccc(F)cc2)n1`, the concentration at half-maximal activity (AC50) under setting [1] was 35.5 µM [falling, single point].

For the molecule `CN(C)c1ccc(-c2nc3ccccc3c(=O)[nH]2)cc1`, the AC50 reads like this: under setting [1], 10 µM [falling, partial curve]; under setting [2], 5.01 µM [rising, full curve].

On to `COc1ccc(C2c3ccc4ccccc4c3Oc3ncn(Cc4ccco4)c(=N)c32)cc1OC` (centres undefined), for which the concentration at half-maximal activity (AC50) under setting [1] is 9.2 µM [falling, partial curve].

In the case of `Cc1cccc(N2CCN(S(=O)(=O)c3ccc(Cl)nc3)CC2C)c1` (centres undefined), under setting [1], the AC50 was 9.2 µM [falling, partial curve].

For `O=[N+]([O-])c1cccc(N/N=C/c2cc([N+](=O)[O-])ccc2O)c1`, the AC50 under setting [1] is 6.31 µM [falling, full curve].

In the case of `CCN(CC)S(=O)(=O)c1ccc(C)c(NC(=O)COC(=O)CN2C(=O)NC(C)(C)C2=O)c1`, the AC50 under setting [1] is 0.082 µM [rising, full curve, poor fit].

`O=[N+]([O-])c1ccc(Sc2ccc(Cl)c(Cl)c2)nc1`: under setting [1], the AC50 was 7.08 µM [falling, partial curve, poor fit].

For the molecule `CCOC(=O)COc1cccc2c(=O)n(CC(=O)NCc3ccc4c(c3)OCO4)ccc12`, the AC50 under setting [2] was 2.91 µM [falling, partial curve, poor fit].

Take `Cc1ccc2[nH]c(=O)c(CN(Cc3ccc4c(c3)OCO4)Cc3nnnn3Cc3ccco3)cc2c1`: the AC50 under setting [1] is 0.517 µM [falling, full curve, poor fit].

In the case of `Cc1ccc2[nH]c(-c3cccc(F)c3)cc(=O)c2c1`, the concentration at half-maximal activity (AC50) by setting is: under setting [1], 2.31 µM [rising, full curve]; under setting [2], 4.61 µM [falling, full curve].

With `Cc1cccc(N(CC(=O)NCCc2ccccc2)C(=O)CCC(=O)Nc2ccccn2)c1C`, the AC50 under setting [1] was 20 µM [falling, single point].

On to `N#Cc1ccc(OCC(=O)NCCN2CCOCC2)cc1`, for which the concentration at half-maximal activity (AC50) under setting [1] was 25.9 µM [rising, single point].

As for `COC(=O)c1sc(OC)cc1OCc1ccc(C)cc1`, under setting [1], the half-maximal activity concentration (AC50) was 29.1 µM [rising, single point].

Regarding `Cc1ccc(OCc2ccc(C(=O)Nc3nccs3)o2)cc1C`, the AC50 under setting [1] is 3.55 µM [falling, partial curve, poor fit].

With `Cc1c(CCNC(=O)c2ccc(Br)o2)sc2nc(-c3ccc(F)cc3)nn12`, the AC50 under setting [1] is 14.1 µM [falling, single point].

On to `COc1cccc(OC)c1C(=O)N1CCN(C(=O)c2ccc(-c3ccccc3)cc2)CC1`, for which, under setting [1], the AC50 was 0.398 µM [falling, full curve, poor fit].

Turning to `S=c1[nH]nc(C2CCCCC2)n1/N=C/c1cccc(Cl)c1Cl`, under setting [1], the AC50 was 35.5 µM [rising, single point].

On to `O=C(Cn1c(=O)c2cccn2c2ccccc21)NCCc1ccccc1`, for which the AC50 under setting [1] is 8.91 µM [rising, partial curve, poor fit].

In the case of `O=c1c2cc3ccccc3n2cnn1Cc1ccccc1F`, the concentration at half-maximal activity (AC50) by setting is: under setting [1], 10.3 µM [rising, partial curve]; under setting [2], 23.1 µM [falling, single point].

In the case of `COc1ccc(/C=C2/C(=O)ON=C2c2ccccc2)cc1OC`, the AC50 under setting [1] is 11.2 µM [rising, single point].

For `COC(=O)c1ccc(-c2nc3ccccc3[nH]2)cc1`, under setting [1], the AC50 was 9.2 µM [falling, partial curve].

On to `COc1ccc(-n2c(SCC(=O)Nc3ccc(C(N)=O)cc3)nc3c([nH]c4ccccc43)c2=O)cc1OC`, for which the AC50 by setting is: under setting [1], 31.6 µM [rising, single point]; under setting [2], 17.8 µM [falling, single point].

As for `CC(=O)c1ccc(/C=C/c2nc3ccccc3n2C)o1`, under setting [1], the AC50 was 35.5 µM [falling, single point].

With `Cc1ccc(C(=O)O)cc1N1C(=O)c2cccc3c([N+](=O)[O-])ccc(c23)C1=O`, the AC50 under setting [1] was 22.4 µM [falling, single point].

For `COc1cc(OC)c(/C=C2\C(=O)Nc3ccccc32)c(OC)c1`, the half-maximal activity concentration (AC50) runs as follows: under setting [1], 29.1 µM [falling, single point]; under setting [2], 20.6 µM [falling, partial curve].

`O=C1CCCCC1C(=O)c1ccccc1` (centres undefined): the half-maximal activity concentration (AC50) under setting [1] is 3.55 µM [falling, single point].

For the molecule `CCOc1ccccc1CNc1ncnc2ccc(-c3c(C)noc3C)cc12`, under setting [1], the AC50 is 20.6 µM [falling, partial curve, poor fit] and 29.1 µM [falling, single point].
